Test system: K. pneumoniae
Test: Dual assays percent correct score versus algorithmically called MIC
Format: cell-based
Settings: more than 30 strains

Substance: Gentamycin
- percent correct score, metabolic assay versus algorithmically called MIC: 83%
- percent correct score, surface binding assay versus algorithmically called MIC: 95%
